{
  "source": "patent US7807713B2",
  "about": "“Pan-antagonists for the androgen receptor and androgen associated with anti-androgen withdrawal” (University of Delaware, priority 2006, dated 2010)",
  "key": {"hAR(W741C)": {"target": "T1, hAR(W741C) (Homo sapiens, UniProt P10275, W742C)", "T1 construct": "expressed in transfected cells; host or cells: CV-1", "T1 sequence (P10275 1-920 W742C)": "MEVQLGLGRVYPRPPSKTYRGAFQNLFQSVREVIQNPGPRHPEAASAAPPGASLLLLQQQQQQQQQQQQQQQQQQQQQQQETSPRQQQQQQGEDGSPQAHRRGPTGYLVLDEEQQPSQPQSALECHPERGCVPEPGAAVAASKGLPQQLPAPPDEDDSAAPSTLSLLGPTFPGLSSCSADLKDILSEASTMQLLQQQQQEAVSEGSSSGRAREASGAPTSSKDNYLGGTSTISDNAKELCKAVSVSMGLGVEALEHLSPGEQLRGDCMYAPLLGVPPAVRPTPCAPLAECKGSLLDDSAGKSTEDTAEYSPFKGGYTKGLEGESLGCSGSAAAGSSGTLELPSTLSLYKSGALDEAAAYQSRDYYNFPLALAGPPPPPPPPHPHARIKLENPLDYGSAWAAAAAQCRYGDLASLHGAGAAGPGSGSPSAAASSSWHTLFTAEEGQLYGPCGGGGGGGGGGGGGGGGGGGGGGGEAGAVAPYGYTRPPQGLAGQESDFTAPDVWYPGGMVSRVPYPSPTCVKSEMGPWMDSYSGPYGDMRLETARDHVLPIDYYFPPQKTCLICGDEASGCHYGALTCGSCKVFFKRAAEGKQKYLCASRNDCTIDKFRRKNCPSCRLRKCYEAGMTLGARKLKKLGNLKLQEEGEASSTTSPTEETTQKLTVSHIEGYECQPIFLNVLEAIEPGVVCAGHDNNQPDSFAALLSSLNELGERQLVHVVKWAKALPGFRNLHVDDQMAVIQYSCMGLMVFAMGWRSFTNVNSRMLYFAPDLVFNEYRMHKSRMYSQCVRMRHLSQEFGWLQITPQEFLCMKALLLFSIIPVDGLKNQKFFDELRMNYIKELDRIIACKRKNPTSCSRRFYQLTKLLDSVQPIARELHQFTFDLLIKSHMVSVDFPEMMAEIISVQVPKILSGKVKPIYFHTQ", "experiment": "Transcription assay (ARE-luciferase reporter, CV-1 cells), mutant androgen receptor W741C", "format": "cell-based", "settings": "not defined in the table; line below the EC50 (agonist activation); 2280 min", "procedure": "(§1) Twenty-four hours prior to transfection, CV-1 cells were seeded at a density of 45,000 cells per well in 24-well cell culture plates and grown in phenol red free Dulbecco's Modified Eagle Medium (DMEM) supplemented with 10% cosmic calf serum (CCS). ARE-luciferase reporter and Renilla-Luc as the internal standard and a […] expression vector encoding the wild-type androgen receptor or mutant androgen receptor were transfected with Lipofectamine (Invitrogen) following manufacturer's protocol. Five hours after transfection, media was added containing the appropriate concentrations of ligands. The cells were allowed to incubate for 38 hours before harvesting by passive lysis buffer. Cell extracts were immediately assayed using the Dual Luciferase Assay (Promega)."}, "hAR(T877A)": {"target": "T2, hAR(T877A) (Homo sapiens, UniProt P10275, T878A)", "T2 construct": "expressed in transfected cells; host or cells: CV-1", "T2 sequence (P10275 1-920 T878A)": "T1 sequence (P10275 1-920 W742C) with C742W, T878A", "experiment": "Transcription assay (ARE-luciferase reporter, CV-1 cells), mutant androgen receptor T877A", "format": "cell-based", "settings": "not defined in the table; line below the EC50 (agonist activation); 2280 min", "procedure": "as §1"}},
  "note": "Changes are numbered by the printed parent chain. The name of at least one read-out is uncertain.",
  "data": [
    {"smiles": "CC(O)(CS(=O)(=O)c1cccc(Cc2ccccc2)c1)C(=O)Nc1ccc(C#N)c(C(F)(F)F)c1", "note": "(centres unmarked) [PLM3, 3-(3-benzylphenylsulfonyl)-N-(4-cyano-3-(trifluoromethyl)phenyl)-2-hydroxy-2-methylpropanamide]", "values": [
      {"measurement": "hAR(W741C) percentage printed under the EC50", "setting": "hAR(W741C)", "result": 65, "unit": "%"}
    ]},
    {"smiles": "CC(O)(CS(=O)(=O)c1ccc(Br)c2ccccc12)C(=O)Nc1ccc(C#N)c(C(F)(F)F)c1", "note": "(centres unmarked) [PLM9, 3-(1-bromonaphthalen-4-ylsulfonyl)-N-(4-cyano-3-(trifluoromethyl)phenyl)-2-hydroxy-2-methylpropanamide]", "values": [
      {"measurement": "hAR(T877A) percentage printed under the EC50", "setting": "hAR(T877A)", "result": 48.00, "unit": "%"}
    ]}
  ]
}
